Experimental data from PubChem BioAssay AID288 (DTP/NCI, 2004).
The list does not hold the whole screen: it gathers tests that were run many times, whatever their T/C, doses with no T/C, and many T/C values between a quarter and a half above the control. Other doses and runs of a compound stand elsewhere. T/C is the treated group as % of the vehicle group. Some doses have a count of surviving animals in place of a T/C: the source holds a T/C of zero for them, seemingly a mark for toxic or unscored doses. Counts of survivors are from the toxicity check (mostly the fifth day) where no day follows; animals may have died later. Schedules are NCI's codes, read here as Q, the interval in days (D) or hours (H), X, the number of doses. Some doses were run more than once; the results are listed from low to high. Where survival is the endpoint, this PubChem deposit counts one and a half times the control or more as active, and values a quarter to a half above the control carry no call in these data; other NCI protocols may use other cut-offs. Some T/C values carry the count of animals alive at the toxicity check (mostly the fifth day); without a count, all were alive then.

Tested on: BDF1 mice, M5076 sarcoma s.c., survival/tumor T/C
Assay: NCI In Vivo Anticancer Drug Screen. Data for tumor model Sarcoma M5076 (subcutaneous) in B6D2F1 (BDF1) mice
Settings: T/C endpoint: median survival time, schedule: Q01DX001 (ip), vehicle: saline, higher T/C = longer survival
Procedure: The antitumor activity of compounds was measured in mice bearing transplantable tumors. Survival or tumor size were measured and the results are expressed as the measurement made in the treated group (T) divided by the measurement made in the vehicle treated control group (C). The tumor model used in this assay is Sarcoma M5076 (subcutaneous) in B6D2F1 (BDF1) mice

**Q.** `O=P1(N(CCCl)CCCl)NCCCO1` (centres undefined) was tested. Which T/C (dose: 108.0 mg/kg/injection, evaluated on day 16) did it give?
**A.** 133 and 152 % of control

**Q.** And the T/C (dose: 108.0 mg/kg/injection, evaluated on day 17)?
**A.** 126 % of control

**Q.** What about the T/C (dose: 108.0 mg/kg/injection, evaluated on day 38) of the same compound?
**A.** 118 % of control

**Q.** What about the T/C (dose: 108.0 mg/kg/injection, evaluated on day 43) of the same compound?
**A.** 132 % of control

**Q.** And the T/C (dose: 108.0 mg/kg/injection, evaluated on day 50)?
**A.** 141 % of control

**Q.** And the T/C (dose: 108.0 mg/kg/injection, evaluated on day 54)?
**A.** 127 % of control

**Q.** What about the T/C (dose: 108.0 mg/kg/injection, evaluated on day 69) of the same compound?
**A.** 149 % of control

**Q.** And the T/C (dose: 180.0 mg/kg/injection, evaluated on day 16)?
**A.** 133 and 149 % of control

**Q.** What about the T/C (dose: 180.0 mg/kg/injection, evaluated on day 17) of the same compound?
**A.** 145 % of control

**Q.** What about the T/C (dose: 180.0 mg/kg/injection, evaluated on day 38) of the same compound?
**A.** 118 % of control

**Q.** And the T/C (dose: 180.0 mg/kg/injection, evaluated on day 43)?
**A.** 151 % of control

**Q.** And the T/C (dose: 180.0 mg/kg/injection, evaluated on day 50)?
**A.** 148 % of control

**Q.** And the T/C (dose: 180.0 mg/kg/injection, evaluated on day 54)?
**A.** 147 % of control

**Q.** And the T/C (dose: 180.0 mg/kg/injection, evaluated on day 69)?
**A.** 170 % of control

**Q.** What about the T/C (dose: 300.0 mg/kg/injection, evaluated on day 16) of the same compound?
**A.** 156 and 167 % of control

**Q.** And the T/C (dose: 300.0 mg/kg/injection, evaluated on day 17)?
**A.** 156 and 161 % of control

**Q.** What about the T/C (dose: 300.0 mg/kg/injection, evaluated on day 38) of the same compound?
**A.** 133 % of control

**Q.** And the T/C (dose: 300.0 mg/kg/injection, evaluated on day 43)?
**A.** 168 % of control

**Q.** And the T/C (dose: 300.0 mg/kg/injection, evaluated on day 50)?
**A.** 154 % of control [9 of 10 alive on day 50]

**Q.** And the T/C (dose: 300.0 mg/kg/injection, evaluated on day 54)?
**A.** 153 and 164 % of control

**Q.** And the T/C (dose: 300.0 mg/kg/injection, evaluated on day 69)?
**A.** 183 % of control [7 of 10 alive on day 69]

**Q.** And the T/C (dose: 430.0 mg/kg/injection)?
**A.** 129 % of control

**Q.** What about the survivor count (dose: 430.0 mg/kg/injection) of the same compound?
**A.** 3 of 9 on day 54

**Q.** And the T/C (dose: 500.0 mg/kg/injection, evaluated on day 16)?
**A.** 156 [7 of 8 alive] and 163 % of control

**Q.** And the T/C (dose: 500.0 mg/kg/injection, evaluated on day 17)?
**A.** 77 % of control [6 of 7 alive]

**Q.** What about the T/C (dose: 500.0 mg/kg/injection, evaluated on day 38) of the same compound?
**A.** 159 % of control

**Q.** What about the T/C (dose: 500.0 mg/kg/injection, evaluated on day 69) of the same compound?
**A.** 194 % of control [7 of 10 alive on day 69]

**Q.** What about the survivor count (dose: 500.0 mg/kg/injection) of the same compound?
**A.** 1 of 8 on day 54, 5 of 9 on day 43, 6 of 10 on day 50

**Q.** And the survivor count (dose: 614.0 mg/kg/injection)?
**A.** 0 of 9 on day 54 and 1 of 5
